From PubChem BioAssay AID2685 (National Center for Advancing Translational Sciences (NCATS), 2010)
Hit rate of the full screen: of about 320,000 compounds, about 2,100 (0.66%) were called active. The shares of active, inactive and inconclusive entries below differ from those in the screen. Calls follow the shape of the dose curve; as a rule, active = well fitted inhibition curve with a large enough effect in the signal ratio, with a control signal flat (not every such curve was filed as active); inconclusive = small, poorly fitted or top-dose-only effect, or effect the other way, or a change in a side signal; inactive = flat fitted curve, though single readings scatter; the % refers to the signal ratio. Potencies of inconclusive entries are doubtful fits and often do not repeat.

assay: qHTS Assay for Lipid Storage Modulators in Drosophila S3 Cells; conditions: BODIPY lipid droplet fluorescence, 18-24 h, cells fed with added oleic acid; lipid storage change, negative = inhibition: at 46.1 µM (top of the series) unless noted
Procedure, shortened: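 Laser-scanning cytometry quantifies lipid droplet accumulation (500–530 nm total intensity; droplet/cell object ratio) in oleic acid-fed (400 uM added) Drosophila S3 cells treated with a concentration series. 20 uM Triacsin C defined 100% inhibition.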
% is scaled to controls: 0 for no effect and ±100 for the full control effect; potency is read from the fitted curve at half-maximal effect.

Q: For `COc1cccc(NC(=O)C2CCCO2)c1` (stereo unspecified), which Potency is on record?
A: inconclusive: 4.11 µM [activator, full curve]

Q: Which Potency does the source give for `Cn1c(SCC(=O)N2CCCCCC2)nc2c(c1=O)SCC2` here?
A: inconclusive: 6.51 µM [activator, partial curve, poor fit]

Q: For `Cn1cc(/C=C(\NC(=O)c2ccccc2Cl)C(=O)N2CCOCC2)c2ccccc21`, which lipid storage change, negative = inhibition is on record?
A: inconclusive: 40.5%

Q: Which lipid storage change, negative = inhibition does the source give for `COC(=O)c1sc(NC(=S)NC(=O)c2ccccc2C)nc1C` here?
A: inconclusive: 14.7%

Q: Which Potency does the source give for `COc1ccc(-n2cnnc2SCc2cnc(-c3ccccc3)s2)cc1` here?
A: inconclusive: 2.59 µM [activator, single point]

Q: With `COC(=O)c1cn(CC(=O)NCc2ccco2)c2ccccc12` as the compound, how does the lipid storage change, negative = inhibition read?
A: inconclusive: 79.2%

Q: Which Potency does the source give for `O=C(Nc1cc(S(=O)(=O)N2CCCC2)ccc1Cl)C1=COCCO1` here?
A: inconclusive: 6.51 µM [activator, partial curve]

Q: Which lipid storage change, negative = inhibition does the source give for `COC(=O)c1sc(SC)c(S(=O)(=O)C(C)C)c1N/N=C(\C#N)S(=O)(=O)c1ccccn1` here?
A: inconclusive: 5.73%

Q: With `CCC(C(=O)NCc1ccc(F)cc1)N(Cc1ccco1)C(=O)c1snc(C(N)=O)c1N` (stereo unspecified) as the compound, how does the “lipid storage change, negative = inhibition” value read?
A: inactive: 24.7%

Q: For `COc1ccccc1N(CC(=O)NCCSCc1cccc(C)c1)S(=O)(=O)c1ccccc1`, which Potency is on record?
A: inconclusive: 23.1 µM [falling, partial curve, poor fit]

Q: Which lipid storage change, negative = inhibition does the source give for `Cc1ccc(SCC(=O)OC(C)C(=O)Nc2ccc(S(N)(=O)=O)cc2)cc1C` (stereo unspecified) here?
A: inconclusive: -13.4%

Q: With `CO/N=C/c1ccc(N2CCOCC2)c([N+](=O)[O-])c1` as the compound, how does the lipid storage change, negative = inhibition read?
A: inconclusive: 6.89%

Q: With `O=C(O)c1cc(Br)ccc1NN=C1CCCCC1` as the compound, how does the Potency read?
A: inconclusive: 0.0052 µM [activator, full curve]

Q: Which Potency does the source give for `O=C(OCc1cc2ccccc2[nH]c1=O)c1cccnc1` here?
A: inconclusive: 0.651 µM [activator, single point]

Q: Which Potency does the source give for `NC(=O)c1cc(N2C(=O)C=CC2=O)ccc1Cl` here?
A: inconclusive: 29.1 µM [cytotoxic, single point]

Q: With `CS(=O)(=O)c1ccccc1C(=O)Nc1ccc(-c2nc3ccccc3[nH]2)cc1` as the compound, how does the Potency read?
A: inconclusive: 5.17 µM [falling, full curve, poor fit]

Q: Which lipid storage change, negative = inhibition does the source give for `O=C(Cc1cccs1)NCCc1ccc(F)cc1` here?
A: inconclusive: -30.5%

Q: Which Potency does the source give for `CCCOC(=O)N[C@@H]1C(=O)N2C(C(=O)OCCC)=C(C)CS[C@H]12` here?
A: inconclusive: 16.4 µM [activator, partial curve]

Q: For `CC(=O)c1ccc(N2CCN(c3ncc(C(F)(F)F)cc3Cl)CC2)cc1`, which lipid storage change, negative = inhibition is on record?
A: inconclusive: 406%

Q: Which Potency does the source give for `CCCCc1nc2cc(C(=O)N3CCC(OCCOC)CC3)ccc2o1` here?
A: inconclusive: 0.58 µM [activator, single point]

Q: Which Potency does the source give for `Cc1cc(NC(=O)c2cccs2)cc(-c2nc3ncccc3o2)c1O` here?
A: inconclusive: 29.1 µM [activator, single point]

Q: Which Potency does the source give for `Cc1ccc(-c2c[n+](Cc3ccc(Cl)c(Cl)c3)c3n2CCC3)cc1` here?
A: inconclusive: 29.1 µM [falling, single point]

Q: With `O=C(Nc1nc2ccccc2[nH]1)NC1CCCCC1` as the compound, how does the Potency read?
A: inconclusive: 29.1 µM [falling, single point]

Q: Which lipid storage change, negative = inhibition does the source give for `COc1ccc(C(=O)Nc2cccc(S(C)(=O)=O)c2)cc1OC` here?
A: inconclusive: 18.4%

Q: For `O=C(CN1CCN(c2ncc(C(F)(F)F)cc2Cl)CC1)Nc1ccc2c(c1)OCO2`, which lipid storage change, negative = inhibition is on record?
A: inconclusive: 62.2%

Q: With `C=CCC1=C/C(=C\c2c(N)n3nc(CC(=O)N4CCOCC4)sc3nc2=O)C=C(OC)C1=O` as the compound, how does the Potency read?
A: inconclusive: 1.46 µM [falling, partial curve]

Q: Which Potency does the source give for `CN(C)c1ccc(N2C(=NC(=O)COc3ccccc3)SC3CS(=O)(=O)CC32)cc1` (stereo unspecified) here?
A: inconclusive: 6.51 µM [cytotoxic, partial curve, poor fit]

Q: For `NC(=O)CN1CCN(S(=O)(=O)c2ccc(Br)cc2)CC1`, which lipid storage change, negative = inhibition is on record?
A: inconclusive: 9.34%

Q: For `CCC(=O)Nc1nnc(SCC(=O)c2ccc3c(c2)Cc2ccccc2-3)s1`, which lipid storage change, negative = inhibition is on record?
A: inconclusive: -5.24%

Q: For `Oc1[nH]c2ccccc2c1N=Nc1nncc2ccccc12`, which lipid storage change, negative = inhibition is on record?
A: inconclusive: -38.5%

Q: Which lipid storage change, negative = inhibition does the source give for `CC(C)(C)c1ccc(OCCNC(=S)NC(=O)c2cccnc2)cc1` here?
A: inconclusive: -51%

Q: For `Cc1ccccc1C(=O)Nc1cc(-c2cc(C(C)(C)C)oc2C)nn1C`, which Potency is on record?
A: inconclusive: 23.1 µM [falling, single point]

Q: With `C=C(C)C1CC=C(C)/C(=N/NC(=O)COc2ccccc2Cl)C1` (stereo unspecified) as the compound, how does the Potency read?
A: inconclusive: 6.51 µM [activator, partial curve]

Q: For `O=C(Nc1cc(C(F)(F)F)ccc1N1CCOCC1)c1cncc(Br)c1`, which lipid storage change, negative = inhibition is on record?
A: inconclusive: -13%

Q: For `COc1ccc(N(CC(=O)Nc2cccc(N(C)S(C)(=O)=O)c2)S(=O)(=O)c2ccc(F)cc2)cc1`, which lipid storage change, negative = inhibition is on record?
A: inconclusive: -3.7%

Q: For `CC(C)(C)c1ccccc1OCCOCCN1CCCCCC1`, which lipid storage change, negative = inhibition is on record?
A: inconclusive: -5.3%

Q: With `COc1nc2cc(C)ccc2cc1-c1noc(-c2cccnc2)n1` as the compound, how does the lipid storage change, negative = inhibition read?
A: inconclusive: 66.3% [activator]

Q: Which lipid storage change, negative = inhibition does the source give for `CCOc1nc(NC2CCCC2)nc(N2CCC(C)CC2)n1` here?
A: inconclusive: -50%

Q: Which lipid storage change, negative = inhibition does the source give for `CC1CCC(C(C)C)C2=C1C(C#N)(C#N)C(C#N)(C#N)C(c1ccccc1)N2` (stereo unspecified) here?
A: inconclusive: 31.7%

Q: With `COc1ccc(NC(=O)c2ccc3c(SCC(=O)O)c4c(nc3c2)CCCC4)cc1Cl` as the compound, how does the lipid storage change, negative = inhibition read?
A: inconclusive: 8.53%

Q: With `CN=c1scc(-c2cccs2)n1/N=C/c1ccccc1O` as the compound, how does the Potency read?
A: inconclusive: 2.06 µM [activator, single point]

Q: For `CN(CC(=O)Nc1ccc(F)cc1)C(=O)COc1ccc(C(=O)c2ccccc2)cc1`, which lipid storage change, negative = inhibition is on record?
A: inconclusive: 26.7%

Q: For `CCNc1nc(SCC(=O)Nc2ccccc2)nc(N2CCOCC2)n1`, which Potency is on record?
A: inconclusive: 20.6 µM [activator, partial curve]

Q: Which lipid storage change, negative = inhibition does the source give for `Cc1ccc2c(c1)N(CC(=O)N1CCCCCC1)C(=O)c1cccnc1O2` here?
A: inconclusive: -37.6%

Q: For `CC(NC(=O)C1CCCCC1)C(=O)NC1=NCCS1` (stereo unspecified), which Potency is on record?
A: active: 20.6 µM

Q: Which lipid storage change, negative = inhibition does the source give for `COc1cccc(CNC(=O)c2n[nH]c3ccccc23)c1` here?
A: inconclusive: 14.5%

Q: For `O=c1c2ccccc2ncn1Cc1ccc(Cl)cc1`, which lipid storage change, negative = inhibition is on record?
A: inconclusive: -15.2%

Q: Which Potency does the source give for `CC(=O)c1ccc(NC(=O)COC(=O)C2C3CC4OC(=O)C2C4C3)cc1` (stereo unspecified) here?
A: inconclusive: 29.1 µM [falling, single point]

Q: With `Cc1cccc(C)c1NC(=O)CSCC(=O)c1ccc(O)c(O)c1` as the compound, how does the lipid storage change, negative = inhibition read?
A: inconclusive: 12.2%

Q: With `COc1ccc(/C=C/C(=O)Nc2cc(F)ccc2C)cc1S(=O)(=O)N1CCOCC1` as the compound, how does the lipid storage change, negative = inhibition read?
A: inconclusive: 42.3%

Q: With `Cc1cc(C(=O)N/N=C/c2ccc[nH]2)no1` as the compound, how does the Potency read?
A: inconclusive: 18.4 µM [activator, single point]

Q: With `O=C(c1cc(S(=O)(=O)NCc2ccco2)ccc1Br)N1CCOCC1` as the compound, how does the Potency read?
A: inconclusive: 18.4 µM [activator, single point]

Q: Which lipid storage change, negative = inhibition does the source give for `COc1ccc(C)cc1S(=O)(=O)NC(C)C(=O)NC1CC1` (stereo unspecified) here?
A: inconclusive: -9.39%

Q: With `CCCCN(C(=O)c1ccc(C)o1)c1c(N)n(CC(C)C)c(=O)[nH]c1=O` as the compound, how does the lipid storage change, negative = inhibition read?
A: inconclusive: -18.1%

Q: Which lipid storage change, negative = inhibition does the source give for `CC1CCN(C(c2ccc(N(C)C)cc2)c2nnnn2Cc2ccccc2)CC1` (stereo unspecified) here?
A: inconclusive: 24.2%

Q: With `COc1ccc(NS(=O)(=O)c2ccc(SC)cc2)c(OC)c1` as the compound, how does the lipid storage change, negative = inhibition read?
A: inconclusive: 39.1%

Q: For `CN(C)S(=O)(=O)c1ccc(NC(=O)CN2CCCc3ccccc32)cc1`, which lipid storage change, negative = inhibition is on record?
A: inconclusive: 30.3%

Q: For `O=C(c1ccccc1)c1ccc(NCCCn2ccnc2)c([N+](=O)[O-])c1`, which Potency is on record?
A: inconclusive: 29.1 µM [falling, single point]

Q: For `COc1ccc(C(=O)c2nc3c(n2O)CCCCC3)cc1`, which lipid storage change, negative = inhibition is on record?
A: inconclusive: 3.15%

Q: For `O=C(NC1CCCc2ccccc21)c1cccc(S(=O)(=O)N2CCOCC2)c1` (stereo unspecified), which lipid storage change, negative = inhibition is on record?
A: inconclusive: 24.5%

Q: With `CCOc1ccc(C(=O)NCC(=O)OCc2ccc(F)cc2Cl)cc1` as the compound, how does the “lipid storage change, negative = inhibition” value read?
A: inactive: 8.58%

Q: For `CN1C(=O)c2ccc(NC(=O)CSc3ccccc3)cc2C1=O`, which lipid storage change, negative = inhibition is on record?
A: inconclusive: 3.3%

Q: With `CC1CCCCN1CC(=O)Nc1ccccc1Sc1ccccc1` (stereo unspecified) as the compound, how does the Potency read?
A: inconclusive: 29.1 µM [cytotoxic, single point]

Q: For `Cc1oc2c(c(C)cc3oc(=O)c(CC(=O)N[C@@H](CC(C)C)C(=O)O)c(C)c32)c1C`, which lipid storage change, negative = inhibition is on record?
A: inconclusive: 19%

Q: With `O=C(COC(=O)C1CC2CCCC(C1)C2=O)c1cccc(Br)c1` (stereo unspecified) as the compound, how does the lipid storage change, negative = inhibition read?
A: inconclusive: 12.2%

Q: For `CCOc1ccc(NC(=O)Nc2cc(C(C)C)ccc2C)cc1`, which lipid storage change, negative = inhibition is on record?
A: inconclusive: -6.45%

Q: Which lipid storage change, negative = inhibition does the source give for `CN1CCN(c2ccc(NC(=O)c3ccc(Cl)cc3)cn2)CC1` here?
A: inconclusive: 17%

Q: Which Potency does the source give for `COc1ccccc1NC(=S)N(Cc1ccco1)Cc1cc2cc(C)c(C)cc2[nH]c1=O` here?
A: inconclusive: 1.84 µM [activator, partial curve, poor fit]

Q: Which lipid storage change, negative = inhibition does the source give for `COc1cc(NC(=O)CN(C)Cc2cccc(F)c2)c(C)cc1[N+](=O)[O-]` here?
A: inconclusive: 48.7%

Q: With `Nc1cc(Cl)ccc1C(=O)OCC(=O)NC(=O)NCc1ccccc1` as the compound, how does the lipid storage change, negative = inhibition read?
A: inconclusive: -11.6%

Q: For `CCn1c(SCC(=O)NCc2ccccc2)nnc1-c1ccccc1O`, which lipid storage change, negative = inhibition is on record?
A: inconclusive: 37.7%

Q: With `CC1=NN(c2ccccc2)C(=O)/C1=C/c1ccc[nH]1` as the compound, how does the Potency read?
A: inconclusive: 29.1 µM [cytotoxic, single point]

Q: With `O=C1c2ccccc2C(=O)N1CCCSc1nc2ccccc2o1` as the compound, how does the lipid storage change, negative = inhibition read?
A: inconclusive: -16.9%

Q: For `CC(=O)Nc1ccc(Nc2c3c4c(cccc4n(C)c2=O)C(=O)c2ccccc2-3)cc1`, which Potency is on record?
A: inconclusive: 32.6 µM [falling, single point]

Q: With `COc1ccc(/C=C2\SC(=S)N(CCC(=O)Nc3cccc(O)c3)C2=O)cc1OC` as the compound, how does the “outcome” value read?
A: inactive [at 46.1 µM]

Q: For `NC(=O)c1sc2cc(C(F)(F)F)cnc2c1-c1cccs1`, which Potency is on record?
A: inconclusive: 6.51 µM [activator, single point]
